# Results taken from the supplement of paper PMC3334620.
# Whole data set: some 33,000 sequences, median “E-score (-0.5 to 0.5)” near -8e-05, cut for the highest 2% near 0.23. This is one part of the list.
# Target: T1, Nrg2 (UniProt P38082)
# T1 sequence: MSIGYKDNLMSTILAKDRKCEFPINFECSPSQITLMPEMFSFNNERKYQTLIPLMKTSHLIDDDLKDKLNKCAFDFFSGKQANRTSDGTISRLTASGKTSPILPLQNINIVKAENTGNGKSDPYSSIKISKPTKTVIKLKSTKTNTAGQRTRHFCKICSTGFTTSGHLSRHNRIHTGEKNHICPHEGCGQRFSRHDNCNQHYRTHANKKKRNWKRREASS
# Experiment: PBM E-score (8-mer binding enrichment) (E-score (-0.5 to 0.5)); higher = stronger / more preferred TF binding
# Conditions: protein concentration: 100 nM; construct: GST-full length
# In short: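 PURExpress in vitro transcription/translation supplied GST-tagged yeast transcription factors, either full-length or DNA-binding domain. Applied at about 100-200 nM to universal all-10-mer Agilent arrays double-stranded by primer extension, the bound protein was detected with fluorescent anti-GST. E-scores, modified Wilcoxon-Mann-Whitney statistics, were given by the Universal PBM Analysis Suite to ungapped eight-base words pooled with their reverse complements after masliner normalisation.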
row,Sequence,PBM E-score
1,ACGGAATC,0.0288
2,TCGAGAGA,-0.0129
3,GCACGACA,-0.0487
4,CGGATACA,0.00321
5,AATTGACG,-0.0643
6,CCTTAACC,-0.104
7,CCAGAGCA,0.113
8,CATGGCCA,-0.042
9,GATTAGGC,0.0901
10,ACGATTAC,-0.0875
11,CAGTACCA,-0.0964
12,AGATCCTG,-0.0865
13,CAGTGGAA,-0.0633
14,GTTACGCA,0.00206
15,CCGCATCA,-0.0093
16,ATGACACA,0.147
17,AATTGATA,0.193
18,CTTCCTCA,0.0492
19,CCCCTCTC,-0.259
20,ATGATCGC,-0.0116
21,AGCGGGAA,0.117
22,GATACCGC,0.126
23,ATCATGTA,0.0207
24,ATTCGTAA,0.0546
25,CGAGACCA,0.0493

# Quoted from above (four entries):
row,Sequence,PBM E-score
5,AATTGACG,-0.0643
6,CCTTAACC,-0.104
7,CCAGAGCA,0.113
8,CATGGCCA,-0.042

# More results follow.

row,Sequence,PBM E-score
1,CGTCACAA,0.0516
2,CAGTTAGA,-0.102
3,AAGAACTC,0.0776
4,GCCTGAGA,-0.0991
5,GCAAGCAC,-0.269
6,TATACACA,0.128
7,ATGTCATG,0.0722
8,ATTCTATA,0.0728
9,TCCTATCA,-0.053
10,ATACGCTG,0.043
11,GGACGAGA,0.0326
12,CTAAGGTC,-0.0369
13,CATGGGCG,-0.0413
14,CTACAAGC,0.0607
15,ACAAAATG,-0.0223
16,CTCGTTCC,0.135
17,GGTAGCGA,-0.0206
18,CTCGCATA,0.034
19,ACTAGTCA,-0.0955
20,AAGGGTTG,0.167
21,AAGTTACC,0.145
22,CCGGCCCA,-0.303
23,CTACGAAC,0.0458
24,CCCGATAC,-0.0132
25,GTGCCAAA,-0.0122

row,Sequence,PBM E-score
1,AAATATCA,0.103
2,ATACAGAT,0.157
3,TCTGAACA,0.0152
4,CTATTAGA,-0.0491
5,ATGGTCTA,-0.0555
6,CCAATAGG,-0.102
7,GAAACGTC,-0.109
8,AGAGTGAT,0.161
9,GTTAATTA,0.204
10,CTTTAACA,-0.118
11,ATGTCAGC,0.0531
12,ACGGTTCT,-0.137
13,AGCCGGGA,-0.132
14,CTACTTTC,0.116
15,ATGTTCTC,-0.0462
16,AACGGACG,-0.0834
17,CGCGGCGA,0.131
18,CTTTGTGC,-0.00409
19,TCCACTCA,0.0334
20,ATCGAGTA,0.0604
21,AGTTATGA,0.0207
22,CCGCATTA,-0.0232
23,ATACCCTC,0.0223
24,AAAATAAA,0.0957
25,GTTGAGGA,-0.104

row,Sequence,PBM E-score
1,GTGTGCGA,-0.00287
2,CGGTCGAC,-0.0395
3,CGGTTGTA,-0.147
4,TGATGCCA,0.035
5,ATTCAAAA,0.201
6,CGGCGAAC,-0.0868
7,ACGAACTA,0.0901
8,CTCTTCAA,-0.256
9,AAACTGAC,-0.00747
10,GATTTTCC,-0.0202
11,ACTAATAG,0.135
12,GTACTGTA,-0.101
13,ATGGCGAC,-0.078
14,TCGGTCCA,-0.0618
15,AGCGAAGA,-0.106
16,AAGCTCCG,0.00761
17,CCCGTTAC,0.00497
18,TCGTCAAA,0.121
19,AAACACAG,0.147
20,CTACGGTA,-0.0723
21,CGGGGTGC,0.0228
22,GAAGAAGA,-0.0608
23,CTGCTGTA,-0.0474
24,GAGATGTA,0.0863
25,CCTGCTTA,0.0296

row,Sequence,PBM E-score
1,AAACTGCT,-0.114
2,AACTGCCT,0.0785
3,CTTGTTAA,0.0818
4,CGTACGAA,0.00904
5,ATCCCCTC,0.0203
6,AAACTGTC,-0.0754
7,ATAATGTC,0.121
8,AGTACAGG,0.186
9,GCGAAAGC,-0.0231
10,AAAGAAGG,-0.135
11,AGCATTTG,0.0316
12,CGGCTGGC,-0.107
13,CCGTAACA,-0.112
14,ACACGACG,0.0478
15,ATTTGTCA,-0.00577
16,ATGTAAGA,0.137
17,ATGCACAT,0.0459
18,ACTTCCAA,-0.0119
19,CCGGGGAG,-0.197
20,ACCAGGGA,0.122
21,AACTATGT,-0.00714
22,ACTAGAAT,0.0815
23,AATCAAGT,0.0614
24,ACGCGCAA,0.142
25,CAAACCGC,0.0887

row,Sequence,PBM E-score
1,GCAGTCAC,-0.195
2,ACCACCTG,0.0551
3,GTGACTCA,-0.0464
4,ACAGATTG,0.082
5,GATAAAGA,0.0732
6,AATTGTTG,-0.14
7,CACTCATA,0.035
8,CGATGCCA,-0.159
9,AAGGGCTC,-0.192
10,ACTTCAAA,-0.0398
11,ACCCTTCG,0.0838
12,CAAAGTAA,0.0919
13,AATTTGGA,-0.143
14,ACCAATGC,0.142
15,AGAATTGG,0.0829
16,CCGGAAAA,0.0381
17,CGATATAA,0.244
18,CCATCCGG,-0.12
19,CTACACAG,-0.016
20,GTAGGCAC,-0.155
21,CAAGTCGG,0.0707
22,AACGATTC,0.0537
23,ACTTTCGG,-0.108
24,CCGGATAG,0.0119
25,ACCAAAAG,-0.042

# Rewritten as tab-separated lines: entries from further up.
row	Sequence	PBM E-score
20	GTAGGCAC	-0.155
21	CAAGTCGG	0.0707
22	AACGATTC	0.0537
23	ACTTTCGG	-0.108
24	CCGGATAG	0.0119
25	ACCAAAAG	-0.042

# Further records follow:

row,Sequence,PBM E-score
1,GGGGCATA,0.031
2,AATGCAGC,-0.106
3,CGCGGTAC,0.0374
4,TACATCCA,0.017
5,TCATAAGA,-0.184
6,ACCGAGTG,-0.0524
7,TAATTTCA,0.194
8,CCTGGGCC,-0.0335
9,AGGCTGCG,0.0178
10,CCAGTAAA,0.0921
11,GACTCTAA,0.0462
12,TCATCCCA,-0.175
13,AGTATTCA,0.0817
14,GTGGAAGA,-0.159
15,CGACCGGA,-0.12
16,ACCGGCGG,-0.11
17,CCTTTAAG,-0.0435
18,TATTGAGA,0.0404
19,GTAAGTCA,-0.0106
20,ACTGGCGG,-0.101
21,CTAGGTGC,-0.111
22,CGGCCGAC,0.175
